Reference: PubChem BioAssay AID2685 (National Center for Advancing Translational Sciences (NCATS), 2010)
The list shows a part of the results. The main result of the screen is listed elsewhere. These columns were measured beside it and carry no call. The list favours compounds with an active or inconclusive main result. Words in brackets tell the shape of the fitted curve; partial curves, single points and poor fits give uncertain potencies.

Test: qHTS Assay for Lipid Storage Modulators in Drosophila S3 Cells;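 on cell number change: cells counted by Cell Tracker Red CMTPX staining in the red channel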
Details: BODIPY lipid droplet fluorescence, 18-24 h; for cell number change: measured here: cell count max response, cells fed with added oleic acid
How it was run: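 Laser-scanning cytometry quantifies lipid droplet accumulation (500–530 nm total intensity; droplet/cell object ratio) in oleic acid-fed (400 uM added) Drosophila S3 cells treated with a concentration series. 20 uM Triacsin C defined 100% inhibition.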

[1] = measured here: lipid fluorescence (Fed channel) AC50, cells fed with added oleic acid
[2] = measured here: cell number channel AC50, cells fed with added oleic acid

| Structure (SMILES) | cell number change | AC50 [1] | AC50 [2] |
| --- | --- | --- | --- |
| O=C(c1nn(-c2ccccc2)c(=O)c2ccccc12)N1CCN(c2ncccn2)CC1 | -11% | 0.0184 µM [falling, full curve, poor fit] | – |
| CCS(=O)c1ccccc1C(=O)OCC(=O)Nc1cccc(S(=O)(=O)N2CCCCC2)c1 (stereo not given) | -21% | 29.1 µM [falling, single point] | – |
| CCN(CC)CCNC(=O)CNC(=S)N(CCCN1CCOCC1)Cc1cccs1 | – | 0.259 µM [falling, partial curve] | – |
| CN1C(=O)N(CC(=O)NCc2ccc(Cl)cc2Cl)C(=O)C12CCCCC2 | 1.84% | 6.51 µM [rising, single point] | – |
| Cc1ccc(OCC(=O)c2cc(C)n(CC(F)(F)F)c2C)c([N+](=O)[O-])n1 | 7.5% | 0.92 µM [rising, full curve, poor fit] | – |
| Cn1nc(-c2ccc(Cl)cc2)c2cc(C(=O)N3CCOCC3)sc21 | -6.24% | 23.1 µM [rising, single point] | – |
| Cc1cccc(OCC(=O)NNC(=O)Cn2c(=O)cnc3ccccc32)c1 | 25% | 23.1 µM [rising, single point] | – |
| Nc1cc(OCC(F)(F)F)cc(OCC(F)(F)F)c1 | -4.92% | – | – |
| O=C(OCc1nc2ccccc2s1)C1CCN(C2=NS(=O)(=O)c3ccccc32)CC1 | 1.4% | 1.16 µM [falling, full curve, poor fit] | – |
| COc1ccc(NC(=S)/N=C(\N)Nc2nc(C)c3ccccc3n2)cc1 | 11.8% | 0.103 µM [rising, full curve, poor fit] | – |
| CCC1=Nc2ccccc2NC2=C1C(=O)CCC2 | 21.6% | 6.51 µM [rising, single point] | – |
| C[C@@H](NC(=O)c1[nH]cnc1C(=O)Nc1ccc(Cl)cc1)c1ccccc1 | -17.7% | 1.16 µM [rising, partial curve] | 0.731 µM [falling, single point] |
| COc1ccc(Cl)cc1S(=O)(=O)N1CCCC(C(=O)NCCc2ccccc2)C1 (stereo not given) | 17% | 13 µM [falling, partial curve, poor fit] | – |
| CN(Cc1cccc(F)c1)C(=O)CSc1nnc(C2CC2)n1C1CC1 | 2.09% | 0.00517 µM [falling, full curve, poor fit] | – |
| COc1nc(-c2cnccn2)sc1C | 6.65% | – | – |
| COCC(C)NC(=O)c1ccc(CN2CCc3ccccc3C2)cc1 (stereo not given) | 118% | 20.6 µM [rising, single point] | 23.1 µM [rising, single point] |

| Structure (SMILES) | cell number change | AC50 [1] | AC50 [2] |
| --- | --- | --- | --- |
| CSc1ccc(CN2CCc3c([nH]c4ccccc34)C2)cc1 | -4.53% | – | – |
| CCOC(=O)c1ccc(NC(=O)CCN2C(=O)C3CC=CCC3C2=O)cc1 (stereo not given) | 0.0566% | 0.206 µM [falling, full curve, poor fit] | – |
| Cc1ccc(NC(=S)N(N)CCO)cc1 | -8.55% | 0.651 µM [falling, full curve] | – |
| CCOc1ccccc1NC(=O)C(OC(=O)c1ccc(N(C)C)cc1)c1ccccc1 (stereo not given) | -3.81% | 29.1 µM [falling, single point] | – |
| COc1ccc(C(=O)c2c[nH]c(C(=O)NCC3CCCO3)c2)cc1 (stereo not given) | -40.7% | – | 11.6 µM [falling, partial curve] |
| CCOC(=O)C(Cc1cc(C(C)=O)ccc1OCC)C(=O)OCC | -13.3% | 6.51 µM [rising, single point] | – |
| NC(=O)C1(N2CCCCC2)CCN(C(=O)c2ccccc2)CC1 | -11.2% | 1.46 µM [rising, partial curve] | – |
| CCN(CC)CCSc1nnc2c3ccccc3n(CCc3ccccc3)c2n1 | 34% | – | 1.64 µM [rising, full curve, poor fit] |
| C/C(=N\Nc1nc(-c2cc(C)ccc2C)cs1)c1cc2ccccc2oc1=O | 6.51% | 0.291 µM [rising, partial curve] | – |
| COc1cc(C(=S)N2CCC(C(N)=O)CC2)ccc1O | 58.7% | – | 16.4 µM [rising, single point] |
| COc1ccc(OCCCC(=O)N(CCC2=CCCCC2)c2c(N)n(Cc3ccccc3)c(=O)[nH]c2=O)cc1 | -2.53% | 20.6 µM [falling, single point] | – |
| Cc1ccc(Nc2nc(N)nc(CSc3nnc(-c4ccncc4)o3)n2)cc1 | – | 6.51 µM [rising, partial curve] | 5.8 µM [rising, single point] |
| Cc1ccc(S(=O)(=O)Nc2ccc3c(c2)c2c(n3S(=O)(=O)c3ccc(C)cc3)CCCC2=O)cc1 | 9.13% | 0.0058 µM [falling, full curve, poor fit] | – |
| CCOc1ccccc1OCCCOc1ccc([N+](=O)[O-])cc1Cl | 44.5% | 4.11 µM [rising, partial curve] | 6.51 µM [rising, full curve, poor fit] |
| CC(C)C(CCN1C(=O)CCC1=O)C1CCOC(C)(C)C1 (stereo not given) | 12.1% | – | – |

Record cards (already shown):
COc1ccc(C(=O)c2c[nH]c(C(=O)NCC3CCCO3)c2)cc1 (stereo not given) reads cell number change: -40.7%; AC50 [2]: 11.6 µM [falling, partial curve]
CCOc1ccccc1OCCCOc1ccc([N+](=O)[O-])cc1Cl reads cell number change: 44.5%; AC50 [1]: 4.11 µM [rising, partial curve]; AC50 [2]: 6.51 µM [rising, full curve, poor fit]
